# Measured values: patent publication US11078222B2, “Hydroxybenzoic acid derivatives, methods and uses thereof” (UNiVERSIDADE DO PORTO, priority 2016, dated 2021)
# Some results were stated once for a whole list of compounds, not compound by compound. Some ranges recur; such a range may be that of the whole group of compounds.
# Assays:
# [1] = test system: human hepatocellular carcinoma cells (HepG2); assay: Cytotoxicity, SRB method; assay type: cell-based; details: HepG2, 48 hour
# Description: In an embodiment, and as an example, the cytotoxicity of AntiOxBENs was assessed using monolayer cultures of human hepatocytes from hepatocellular carcinoma (HepG2) and SRB method (FIG. 8).
# In an embodiment, the cytotoxicity profile of AntiOxBENs was evaluated in human hepatocellular carcinoma HepG2 cells. Human hepatocellular carcinoma HepG2 cells were cultured in high-glucose medium composed by Dulbecco's modified Eagle's medium (DMEM; D5648) supplemented with sodium pyruvate (0.11 g/L), sodium bicarbonate (1.8 g/L) and 10% fetal bovine serum (FBS) and 1% of antibiotic penicillin-streptomycin 100× solution. Cells were maintained at 37° C. in a humidified incubator with 5% CO2. HepG2 cells were seeded at density of 4×10^4 cells/mL and grown for 24 hours before treatment.
# In an embodiment the cytotoxicity screening was performed as follows: cells were placed on 48-well plate (2×10^4 cells/500 μL) and then were incubated during 48 hour with AntiOxBENs concentrations ranging 25 μM to 500 μM. […] Finally, 200 μl of each supernatant was transferred in 96-well plates and optical density was measured at 540 nm. Data are means±SEM of four independent experiments and the results are expressed as percentage of control (control=100%), which represents the cell density without any treatment in the respective time point.
# [2] = Iron (II) chelation, ferrozine assay; assay type: biochemical; details: compound 100 μM, EDTA=100%
# Description: In an embodiment, the iron (II) chelation capacity of the novel AntiOxBENs was evaluated by the ferrozine assay using EDTA (ethylenediaminetetracetic acid) as reference. The iron chelating properties of protocatechuic and gallic acids, and MitoQ, a mitochondriotropic antioxidant, were also evaluated (FIG. 2).
# In an embodiment, AntiOxBENs iron chelating properties were evaluated by the spectrophotometric ferrozine method performed in a multiplate reader (Powerwave XS Microplate Reader) of Bio-Tech instruments.
# In an embodiment, the AntiOxBENs iron chelating properties were evaluated as follows: in each well, a solution of the test compound (100 μM) and ammonium iron (II) sulphate in ammonium acetate (20 μM) were added, incubated for 10 min and the absorbance was read at 562 nm. Then, a freshly prepared solution of ferrozine (5 mM) was added to each well (96 μM final concentration). After a new incubation at 37° C. for 10 min period, the absorbance of [Fe(ferrozine)3]^2+ complex was measured at 562 nm. Blank wells were run using DMSO instead of the test compounds. EDTA was used as a reference. All compounds were tested at a final concentration of 100 μM. The absorbance of the first reading was subtracted to the final values to abolish any absorbance due to the test compounds.
# [3] = Redox potential by differential pulse and cyclic voltammetry, glassy carbon electrode; assay type: physicochemical; details: physiological pH 7.4
# Description: In an embodiment, the oxidative behaviour of the parent antioxidants (protocatechuic and gallic acids) and AntiOxBENs was evaluated at physiological pH 7.4, by differential pulse and cyclic voltammetry, using a glassy carbon working electrode. […] For pyrogallol derivatives (gallic acid, AntiOxBEN2, AntiOxBEN3), a significant decrease in redox potentials was observed (Ep=0.163-0.168 V) (Table 1).
# In an embodiment, the electrochemical analytical data was obtained using a computer controlled potentiostat Autolab PGSTAT302N (Metrohm Autolab, Utrecht, Netherlands). Generally, cyclic voltammetry (CV) data was acquired at a scan rate of 50 mVs^−1. Differential pulse voltammetry (DPV) results were acquired at a step potential of 4 mV, pulse amplitude of 50 mV and scan rate of 8 mVs^−1. The electrochemical signals were monitored by the General Purpose Electrochemical System (GPES) version 4.9, software package. All electrochemical experiments were performed at room temperature in an electrochemical cell that was placed in a Faraday cage in order to minimize the contribution of background noise to the analytical signal.
# In an embodiment, the process of evaluation of AntiOxBENs redox properties was conducted as follows: stock solutions of each compound (10 mM) were prepared by dissolving the appropriate amount in ethanol. […]
compound,measurement,setting,value
"O=C(NCCCCCC[P+](c1ccccc1)(c1ccccc1)c1ccccc1)c1cc(O)c(O)c(O)c1.[Br-] [AntiOxBEN2, 6-(3,4,5-trihydroxybenzamido)hexyltriphenylphosphonium bromide]",concentrations at which cell proliferation was significantly inhibited,[1],higher than 250 μM
same,chelation of the total iron present in solution,[2],more than 80%
same,Ep (redox potential),[3],0.163-0.168 V
